{"source": "paper PMC5757173", "binders": {"B1": {"name": "Fasciculation and elongation zeta-1 (1-392) protein fused to an N-terminal 6xHis-tag (protein, UniProt Q99689 1-392)", "chain": "MEAPLVSLDEEFEDLRPSCSEDPEEKPQCFYGSSPHHLEDPSLSELENFSSEIISFKSMEDLVNEFDEKLNVCFRNYNAKTENLAPVKNQLQIQEEEETLQDEEVWDALTDNYIPSLSEDWRDPNIEALNGNCSDTEIHEKEEEEFNEKSENDSGINEEPLLTADQVIEEIEEMMQNSPDPEEEEEVLEEEDGGETSSQADSVLLQEMQALTQTFNNNWSYEGLRHMSGSELTELLDQVEGAIRDFSEELVQQLARRDELEFEKEVKNSFITVLIEVQNKQKEQRELMKKRRKEKGLSLQSSRIEKGNQMPLKRFSMEGISNILQSGIRQTFGSSGTDKQYLNTVIPYEKKASPPSVEDLQMLTNILFAMKEDNEKVPTLLTDYILKVLCPT"}}, "molecular_target": "6xHis-RARΔAB", "assay": "cross-linking; purified proteins (7 μM each) with 1.8 mM DSS, 2 h, room temperature; shifted bands in 10% SDS/PAGE digested with trypsin, LC-MS/MS (LTQ Orbitrap Velos); both purified", "note": "These are yes or no findings as the source states them, for the method shown. Binding can be weak; no strength is given. Sequences can lack the tags named with a protein."}
{"binder": "B1", "values": [{"measurement": "binding", "value": "binds"}]}
